Test results published in PMC9676683.
No constants are given. Whether binding was seen depends on the method and setting. In cells and extracts the contact can be indirect. Some results given as binding are weak or reduced against the parent protein; the word gives no strength. Where a sequence is shown, tags or fusion partners need not be part of it.

The chains behind the UniProt entries cited, without tags or fusion partners.
UniProt P70338: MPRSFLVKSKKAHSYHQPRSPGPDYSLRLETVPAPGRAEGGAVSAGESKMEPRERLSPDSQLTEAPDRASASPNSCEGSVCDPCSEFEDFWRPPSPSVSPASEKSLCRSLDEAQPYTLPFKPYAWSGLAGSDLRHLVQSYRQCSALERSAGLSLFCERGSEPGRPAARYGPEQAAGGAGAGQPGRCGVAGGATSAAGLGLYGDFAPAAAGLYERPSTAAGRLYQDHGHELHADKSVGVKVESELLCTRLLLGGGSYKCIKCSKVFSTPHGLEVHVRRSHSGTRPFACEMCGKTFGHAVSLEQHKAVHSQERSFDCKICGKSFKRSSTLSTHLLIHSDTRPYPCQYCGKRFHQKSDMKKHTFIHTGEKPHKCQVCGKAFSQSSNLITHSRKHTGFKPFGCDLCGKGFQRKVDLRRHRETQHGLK

Target: GST-Gfi1 (mouse) (UniProt P70338)
Assay: pull-down; GST-Gfi1 held on glutathione sepharose beads; in vitro translated myc-Atoh1 extract incubated 2 h at 4°C; both treated with micrococcal nuclease; lysis and wash buffers with 5 mM β-mercaptoethanol and 50 μM ZnSO4; Western blot with anti-myc antibody; only the target purified

- binding: binds
B1: Myc-tagged Atoh1 (protein, UniProt P48985 1-351)
chain: MSRLLHAEEWAEVKELGDHHRHPQPHHVPPLTPQPPATLQARDLPVYPAELSLLDSTDPRAWLTPTLQGLCTARAAQYLLHSPELGASEAAAPRDEADSQGELVRRSGCGGLSKSPGPVKVREQLCKLKGGVVVDELGCSRQRAPSSKQVNGVQKQRRLAANARERRRMHGLNHAFDQLRNVIPSFNNDKKLSKYETLQMAQIYINALSELLQTPNVGEQPPPPTASCKNDHHHLRTASSYEGGAGASAVAGAQPAPGGGPRPTPPGPCRTRFSGPASSGGYSVQLDALHFPAFEDRALTAMMAQKDLSPSLPGGILQPVQEDNSKTSPRSHRSDGEFSPHSHYSDSDEAS
